The results in this text go back to US20060257938A1, “Method of screening for drugs that block ligand binding to a lipid binding protein” (priority 2005, published 2006).

B1: 72G 73F 74E (protein, listed as Rattus norvegicus)
chain: AFDGTWKVDRNENYEKFMEKMGINVVKRKLGAHDNLKLTITQEGNKFTVKESSNFRNIDVVFELGVDFAYSGFEGTELTGTWTMEGNKLVGKFKRVDNGKELIAVREISGNELIQTYTYEGVEAKRIFKKE
modifications: PEPTIDE (1)...(131) wild-type rat intestinal fatty acid binding protein
B2: 72S 73W 74G (protein, listed as Rattus norvegicus)
chain: B1 chain with G72S, F73W, E74G
modifications: PEPTIDE (1)...(131) wild-type rat intestinal fatty acid binding protein
B3: 18I 31I 55M 73V 72A (protein, listed as Rattus norvegicus)
chain: B1 chain with M18I, G31I, F55M, G72A, F73V, E74D
modifications: PEPTIDE (1)...(131) wild-type rat intestinal fatty acid binding protein
B4: 74S 72A 73F (protein, listed as Rattus norvegicus)
chain: B1 chain with G72A, E74S
modifications: PEPTIDE (1)...(131) wild-type rat intestinal fatty acid binding protein
B5: 72V 73W 74N (protein, listed as Rattus norvegicus)
chain: B1 chain with G72V, F73W, E74N
modifications: PEPTIDE (1)...(131) wild-type rat intestinal fatty acid binding protein
B6: 18V 31A 73F 72A (protein, listed as Rattus norvegicus)
chain: B1 chain with M18V, G31A, G72A, E74D
modifications: PEPTIDE (1)...(131) wild-type rat intestinal fatty acid binding protein
B7: 38Y 62W 117A 72A (protein, listed as Rattus norvegicus)
chain: B1 chain with L38Y, F62W, G72A, F73A, E74D, Y117A
modifications: PEPTIDE (1)...(131) wild-type rat intestinal fatty acid binding protein
B8: 14Q 18L 31A 73W 117V 72A (protein, listed as Rattus norvegicus)
chain: B1 chain with Y14Q, M18L, G31A, G72A, F73W, E74D, Y117V
modifications: PEPTIDE (1)...(131) wild-type rat intestinal fatty acid binding protein
B9: 18I 31L 55L 72A (protein, listed as Rattus norvegicus)
chain: B1 chain with M18I, G31L, F55L, G72A, F73A, E74D
modifications: PEPTIDE (1)...(131) wild-type rat intestinal fatty acid binding protein
B10: 73F 72A (protein, listed as Rattus norvegicus)
chain: B1 chain with G72A, E74D
modifications: PEPTIDE (1)...(131) wild-type rat intestinal fatty acid binding protein
B11: 18V 31F 73M 72A (protein, listed as Rattus norvegicus)
chain: B1 chain with M18V, G31F, G72A, F73M, E74D
modifications: PEPTIDE (1)...(131) wild-type rat intestinal fatty acid binding protein
B12: 18V 31A 55W 73W 72A (protein, listed as Rattus norvegicus)
chain: B1 chain with M18V, G31A, F55W, G72A, F73W, E74D
modifications: PEPTIDE (1)...(131) wild-type rat intestinal fatty acid binding protein
B13: 38I 74F 72A (protein, listed as Rattus norvegicus)
chain: B1 chain with L38I, G72A, F73A, E74F
modifications: PEPTIDE (1)...(131) wild-type rat intestinal fatty acid binding protein
B14: 74E 72A 73F (protein, listed as Rattus norvegicus)
chain: B1 chain with G72A
modifications: PEPTIDE (1)...(131) wild-type rat intestinal fatty acid binding protein
B15: 55V 73F 72A (protein, listed as Rattus norvegicus)
chain: B1 chain with F55V, G72A, E74D
modifications: PEPTIDE (1)...(131) wild-type rat intestinal fatty acid binding protein
B16: 72S 73Q 74A (protein, listed as Rattus norvegicus)
chain: B1 chain with G72S, F73Q, E74A
modifications: PEPTIDE (1)...(131) wild-type rat intestinal fatty acid binding protein
B17: 72G 73F 74N (protein, listed as Rattus norvegicus)
chain: B1 chain with E74N
modifications: PEPTIDE (1)...(131) wild-type rat intestinal fatty acid binding protein
B18: 18I 31Y 73V 72A (protein, listed as Rattus norvegicus)
chain: B1 chain with M18I, G31Y, G72A, F73V, E74D
modifications: PEPTIDE (1)...(131) wild-type rat intestinal fatty acid binding protein
B19: 21Y, 72A (protein, listed as Rattus norvegicus)
chain: B1 chain with M21Y, G72A, F73A, E74D
modifications: PEPTIDE (1)...(131) wild-type rat intestinal fatty acid binding protein
B20: 72V 73W 74S (protein, listed as Rattus norvegicus)
chain: B1 chain with G72V, F73W, E74S
modifications: PEPTIDE (1)...(131) wild-type rat intestinal fatty acid binding protein
B21: 73T 72A 74F (protein, listed as Rattus norvegicus)
chain: B1 chain with G72A, F73T, E74F
modifications: PEPTIDE (1)...(131) wild-type rat intestinal fatty acid binding protein
B22: 72I 73W 74N (protein, listed as Rattus norvegicus)
chain: B1 chain with G72I, F73W, E74N
modifications: PEPTIDE (1)...(131) wild-type rat intestinal fatty acid binding protein
B23: 72A 73W 74A (protein, listed as Rattus norvegicus)
chain: B1 chain with G72A, F73W, E74A
modifications: PEPTIDE (1)...(131) wild-type rat intestinal fatty acid binding protein
B24: 18I 31A 73F 72A (protein, listed as Rattus norvegicus)
chain: B1 chain with M18I, G31A, G72A, E74D
modifications: PEPTIDE (1)...(131) wild-type rat intestinal fatty acid binding protein
B25: 73P 72A 74F (protein, listed as Rattus norvegicus)
chain: B1 chain with G72A, F73P, E74F
modifications: PEPTIDE (1)...(131) wild-type rat intestinal fatty acid binding protein
B26: 74T 72A 73F (protein, listed as Rattus norvegicus)
chain: B1 chain with G72A, E74T
modifications: PEPTIDE (1)...(131) wild-type rat intestinal fatty acid binding protein
B27: 18V 31F 55L 72A (protein, listed as Rattus norvegicus)
chain: B1 chain with M18V, G31F, F55L, G72A, F73A, E74D
modifications: PEPTIDE (1)...(131) wild-type rat intestinal fatty acid binding protein
B28: 18I 31I 55M 73I 72A (protein, listed as Rattus norvegicus)
chain: B1 chain with M18I, G31I, F55M, G72A, F73I, E74D
modifications: PEPTIDE (1)...(131) wild-type rat intestinal fatty acid binding protein
B29: 18I 31V 55V 73V 72A (protein, listed as Rattus norvegicus)
chain: B1 chain with M18I, G31V, F55V, G72A, F73V, E74D
modifications: PEPTIDE (1)...(131) wild-type rat intestinal fatty acid binding protein
B30: 18I 31V 73G 72A (protein, listed as Rattus norvegicus)
chain: B1 chain with M18I, G31V, G72A, F73G, E74D
modifications: PEPTIDE (1)...(131) wild-type rat intestinal fatty acid binding protein

Numbering of substitutions follows the chain as printed.

The first data set can be described thus: Baseline fluorescence ratio Ro of probe in absence of analyte. To be noted: baseline fluorescence ratio of probe.
As for B1, the Ro was 0.381.

As for B2, the Ro is 0.321.

For the molecule B3, the Ro was 0.362.

As to B4, the Ro is given as 0.230.

Turning to B5, the Ro worked out at 0.207.

In the case of B6, the Ro is on record as 0.308.

In the case of B7, the Ro is 0.554.

For B8, the Ro was 0.334.

On to B9, for which the Ro stood at 0.318.

Turning to B10, the Ro stood at 0.299.

For B11, the Ro is 0.314.

With B12, the Ro was 0.344.

With B13, the Ro is 0.276.

As for B14, the Ro is reported as 0.259.

For B15, the Ro was 0.328.

Regarding B16, the Ro is on record as 0.295.

Turning to B17, the Ro was determined as 0.513.

For B18, the Ro is listed as 0.365.

As to B19, the Ro is 0.432.

On to B20, for which the Ro came out at 0.270.

In the case of B21, the Ro is listed as 0.300.

On to B22, for which the Ro came to 0.229.

For B23, the Ro worked out at 0.268.

B24: the Ro is 0.330.

Take B25: the Ro amounted to 0.265.

On to B26, for which the Ro is reported as 0.181.

For the molecule B27, the Ro is given as 0.303.

Take B28: the Ro is given as 0.391.

Regarding B29, the Ro turned out to be 0.362.

As for B30, the Ro was found to be 0.360.

The same data set, now with this note: baseline fluorescence ratio of probe, no fatty acid.
Regarding B2, the Ro was 0.321.

Consider B4, for which the Ro was 0.230.

Turning to B5, the Ro worked out at 0.207.

B6: the Ro stood at 0.308.

As to B7, the Ro came to 0.554.

For B8, the Ro turned out to be 0.334.

Consider B10, for which the Ro came out at 0.299.

Take B13: the Ro came out at 0.276.

With B14, the Ro was 0.259.

B15: the Ro is 0.328.

Take B17: the Ro is listed as 0.513.

Turning to B18, the Ro was found to be 0.365.

Consider B20, for which the Ro is given as 0.270.

In the case of B21, the Ro was found to be 0.300.

For B22, the Ro was determined as 0.229.

Consider B23, for which the Ro came to 0.268.

Take B24: the Ro was determined as 0.330.

Take B26: the Ro is listed as 0.181.
